Source: publication PMC9626565
No constants are given. Whether binding was seen depends on the method and setting. Binding seen in cells or lysates may run through a third protein. Binding calls can cover weak binding; strength is not graded here. Tags and fused reporters may be left off the sequences shown.

Sequences of proteins named here, by UniProt entry; tags and fusion partners are left off. A change or cut given only in a name is not applied to a line headed by its entry.
UniProt Q9VAJ5: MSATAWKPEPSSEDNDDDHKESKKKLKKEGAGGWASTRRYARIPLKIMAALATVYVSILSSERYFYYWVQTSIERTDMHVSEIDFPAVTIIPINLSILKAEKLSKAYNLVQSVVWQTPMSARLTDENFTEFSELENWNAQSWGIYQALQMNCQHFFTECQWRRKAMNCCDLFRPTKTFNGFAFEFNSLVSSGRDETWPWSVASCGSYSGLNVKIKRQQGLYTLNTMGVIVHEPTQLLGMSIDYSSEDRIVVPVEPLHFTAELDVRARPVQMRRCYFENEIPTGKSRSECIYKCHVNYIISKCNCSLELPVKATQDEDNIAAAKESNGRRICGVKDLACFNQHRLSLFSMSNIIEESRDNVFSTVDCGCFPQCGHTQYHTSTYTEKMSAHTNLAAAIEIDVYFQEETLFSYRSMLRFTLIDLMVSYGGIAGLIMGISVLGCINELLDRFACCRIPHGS

Target: Ppk30 fused to the C-terminal fragment of GFP (ppk30-GFP-C) (Drosophila) (UniProt Q9VAJ5)
Assay: split reporter; fragment complementary assay (FCA) with N- and C-terminal fragments of Kusabira Green (CoralHue Fluo-chase Kit); vectors co-transfected into HEK293T cells, 48 h; fluorescence by confocal microscopy and fluorescence spectrophotometer, normalised to beta-gal activity

B1: Ppk19 fused to the N-terminal fragment of GFP (ppk19-GFP-N) (protein, UniProt Q9VAJ3 1-511)
chain: MLLYTKELVIPRPRPGLLRFRNNPRGIKFREKLCNSFAHSNIHGMQHVFGEQHLWQRCLWLAIVLGAVITGFSLYTVLMHRHSEQLLVSLIETTQLPVYHIDFPAVAVCPWNHFNWQRAPSAFIRFLPRHPNAELRETFRQLLASMDIMNFSNFNRIRILTKRNLTGISYLKMTDLMNFMTYRCDELFVADSCVFDETPYDCCKLFVREQTVKGQCLVFNSMISENSRKKHLINQFYPHKLSTAGEDSGLKFTINASYSFMNNIDALTPFGMNLMIKEPRQWSNEMMYHLYPDTENFVAVHPLVTETSPNTYEMSPKKRRCYFDDEKNPTFQNTSLTYNRENCLVVCLHLVVWKTCQCSLPAFLPPIDGVPECGINDAQCLGNNSDIFTYVKMGDQEKYINDSRQGHFCDCPDNCNSRLYEMSLNVRKLDYPKNSTDQLIKAQVYYGQRVMTKIITKLKYTNIDLLANFGGIISLYIGASVMSFIELLFVLGKLMWGFIRDARIKLKEYTK
Question: With B1 as the binder, how does the binding read?
Answer: binds
